Laboratory results published in publication PMC10779874.

B1: integrin alpha 2b (protein, UniProt Q9QUM0 32-1033)
chain: LNLDSEKFSVYAGPNGSHFGFSVDFHKDKHGSVSIVVGAPRALNASQEETGAVFLCPWKANGGKCNPLLFDLRDETRNLGFQIFQTFKTGQGLGASVVSWNDVIVACAPWQHWNVLEKRDEAEKTPVGGCFLAQLQSGGRAEYSPCRANTMSSVYAESFRGDKRYCEAGFSLAVTQAGELVLGAPGGYFFLGLLARVPIENIISSYRPGTLLWHVSNQRFTYDNSNPVFFDGYRGYSVAVGEFDGDPSTTEYVSGAPTWSWTLGAVEILDSYYQPLHRLHGEQMASYFGHSVAVTDVNGDGRHDLLVGAPLYMESRADRKLAEVGRVYLFLQPKGPQALSTPTLLLTGTQLYGRFGSAIAPLGDLNRDGYNDIAVAAPYGGPSGQGQVLIFLGQSEGLSPRPSQVLDSPFPTGSGFGFSLRGAVDIDDNGYPDLIVGAYGASKVAVYRAQPVVMATVQLMVQDSLNPTLKNCVLDQTKTPVSCFNIQMCVGATGHNIPQKLHLKAELQLDLQKPRQGRRVLLLASQQASLTLSLDLGGRDKPICHTTGAFLRDEADFRDKLSPIVLSLNVSLPPEETGGAPAVVLHGETHVQEQTRIILDCGEDDLCVPQLRLTATAGDSPLLIGADNVLELKIEAANDGEGAYEAELAVHLPPGAHYMRALSNIEGFERLVCTQKKENESRVALCELGNPMKKDTRIGITMLVSVENLEEAGESVSFQLQVRSKNSQNPNSKVVMLPVAIQAEATVELRGNSFPASLVVAAEEGDREQEDLDRWVSRLEHTYELHNIGPGTVNGLRLLIHIPGQSQPSDLLYILDVQPQGGLLCSTQPSPKVDWKLSTPSPSSIRPVHHQRERRQAFLQGPKPGQQDPVLVSCDGSASCTVVECELREMVRGQRAMVTVQVMLGLSSLRQRPQEQFVLQSHAWFNVSSLPYSVPVVSLPSGQARVQTQLLRALEERAIPVWWVLVGVLGGLLLLTLLVLAMWKAGFFKRNRPPLEEDEEEE
B2: integrin beta 5 (protein, UniProt O70309 24-798)
chain: GLNICTSGSATSCEECLLIHPKCAWCSKEYFGNPRSITSRCDLKANLIRNGCEGEIESPASSTHVLRNLPLSSKGSSATGSDVIQMTPQEIAVSLRPGEQTTFQLQVRQVEDYPVDLYYLMDLSLSMKDDLENIRSLGTKLAEEMRKLTSNFRLGFGSFVDKDISPFSYTAPRYQTNPCIGYKLFPNCVPSFGFRHLLPLTDRVDSFNEEVRKQRVSRNRDAPEGGFDAVLQAAVCKEKIGWRKDALHLLVFTTDDVPHIALDGKLGGLVQPHDGQCHLNEANEYTASNQMDYPSLALLGEKLAENNINLIFAVTKNHYMLYKNFTALIPGTTVEILHGDSKNIIQLIINAYSSIRAKVELSVWDQPEDLNLFFTATCQDGISYPGQRKCEGLKIGDTASFEVSVEARSCPGRQAAQSFTLRPVGFRDSLQVEVAYNCTCGCSTGLEPNSARCSGNGTYTCGLCECDPGYLGTRCECQEGENQSGYQNLCREAEGKPLCSGRGECSCNQCSCFESEFGRIYGPFCECDSFSCARNKGVLCSGHGECHCGECKCHAGYIGDNCNCSTDVSTCKAKDGQICSDRGRCVCGQCQCTEPGAFGETCEKCPTCPDACSSKRDCVECLLLHQGKPDNQTCHHQCKDEVITWVDTIVKDDQEAVLCFYKTAKDCVMMFSYTELPNGRSNLTVLREPECGSAPNAMTILLAVVGSILLIGMALLAIWKLLVTIHDRREFAKFQSERSRARYEMASNPLYRKPISTHTVDFAFNKFNKSYNGSV
B3: integrin beta 3 (protein, UniProt O54890 26-787)
chain: ESNICTTRGVNSCQQCLAVSPVCAWCSDETLSQGSPRCNLKENLLKDNCAPESIEFPVSEAQILEARPLSSKGSGSSAQITQVSPQRIALRLRPDDSKIFSLQVRQVEDYPVDIYYLMDLSFSMKDDLSSIQTLGTKLASQMRKLTSNLRIGFGAFVDKPVSPYMYISPPQAIKNPCYNMKNACLPMFGYKHVLTLTDQVSRFNEEVKKQSVSRNRDAPEGGFDAIMQATVCDEKIGWRNDASHLLVFTTDAKTHIALDGRLAGIVLPNDGHCHIGTDNHYSASTTMDYPSLGLMTEKLSQKNINLIFAVTENVVSLYQNYSELIPGTTVGVLSDDSSNVLQLIVDAYGKIRSKVELEVRDLPEELSLSFNATCLNNEVIPGLKSCVGLKIGDTVSFSIEAKVRGCPQEKEQSFTIKPVGFKDSLTVQVTFDCDCACQAFAQPSSPRCNNGNGTFECGVCRCDQGWLGSMCECSEEDYRPSQQEECSPKEGQPICSQRGECLCGQCVCHSSDFGKITGKYCECDDFSCVRYKGEMCSGHGQCNCGDCVCDSDWTGYYCNCTTRTDTCMSTNGLLCSGRGNCECGSCVCVQPGSYGDTCEKCPTCPDACSFKKECVECKKFNRGTLHEENTCSRYCRDDIEQVKELTDTGKNAVNCTYKNEDDCVVRFQYYEDTSGRAVLYVVEEPECPKGPDILVVLLSVMGAILLIGLATLLIWKLLITIHDRKEFAKFEEERARAKWDTANNPLYKEATSTFTNITYRGT

Biological target: ATP6V1H, the H subunit of V-type proton ATPase
Assay: co-IP; magnetic beads conjugated with ATP6V1H antibodies (commercial kit, Beaver) incubated with the RIPA lysate supernatant of RAW264.7 cell derivatives (native, empty vector, overexpressing ATP6V1H, mutated ATP6V1H); eluate blotted for integrin subunits

binding, binds:
B1, B2, B3

Results are given in words; binding and its absence hold for the method and conditions named. Binding seen in cells or lysates may run through a third protein. Binding calls can cover weak binding; strength is not graded here.
